Data: the supplement of paper PMC10849652
The other results are listed elsewhere or left out.

Chains of the proteins cited; added tags and fusions are not shown. Lines headed by an entry give the natural chain unless they say otherwise; changes in a name come on top.
UniProt P17405: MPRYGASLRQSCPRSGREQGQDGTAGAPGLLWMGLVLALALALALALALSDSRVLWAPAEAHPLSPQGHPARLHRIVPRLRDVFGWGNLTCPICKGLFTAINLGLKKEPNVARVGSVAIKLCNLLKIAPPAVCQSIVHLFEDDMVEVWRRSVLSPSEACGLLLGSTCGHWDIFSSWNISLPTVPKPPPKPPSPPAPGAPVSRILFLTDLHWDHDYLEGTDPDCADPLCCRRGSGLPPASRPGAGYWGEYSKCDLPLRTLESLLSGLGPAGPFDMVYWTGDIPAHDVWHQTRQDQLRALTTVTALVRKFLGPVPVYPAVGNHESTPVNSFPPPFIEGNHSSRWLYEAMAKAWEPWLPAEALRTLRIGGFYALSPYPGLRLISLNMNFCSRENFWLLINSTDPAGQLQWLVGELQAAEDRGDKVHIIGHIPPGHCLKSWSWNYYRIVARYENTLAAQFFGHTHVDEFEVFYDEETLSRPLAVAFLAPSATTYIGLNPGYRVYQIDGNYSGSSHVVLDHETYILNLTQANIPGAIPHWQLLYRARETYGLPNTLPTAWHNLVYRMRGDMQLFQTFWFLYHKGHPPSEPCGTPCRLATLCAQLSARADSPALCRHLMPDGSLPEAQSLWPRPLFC
UniProt Q6X4U4: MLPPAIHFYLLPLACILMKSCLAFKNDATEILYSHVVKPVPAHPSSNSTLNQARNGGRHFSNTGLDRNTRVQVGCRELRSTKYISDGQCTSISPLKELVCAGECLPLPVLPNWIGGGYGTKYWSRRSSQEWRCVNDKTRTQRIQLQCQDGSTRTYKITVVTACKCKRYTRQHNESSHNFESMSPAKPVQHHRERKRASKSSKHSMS
UniProt Q16533: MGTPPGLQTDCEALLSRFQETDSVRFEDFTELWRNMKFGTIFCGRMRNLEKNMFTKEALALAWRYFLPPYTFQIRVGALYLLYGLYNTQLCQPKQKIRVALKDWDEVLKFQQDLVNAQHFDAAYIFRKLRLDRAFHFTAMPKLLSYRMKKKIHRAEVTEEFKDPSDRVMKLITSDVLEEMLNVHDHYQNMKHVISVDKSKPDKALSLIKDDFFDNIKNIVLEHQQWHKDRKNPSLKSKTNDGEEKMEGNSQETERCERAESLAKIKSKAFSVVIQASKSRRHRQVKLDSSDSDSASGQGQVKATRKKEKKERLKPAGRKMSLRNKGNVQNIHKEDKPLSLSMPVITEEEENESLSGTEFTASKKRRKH
UniProt Q02086: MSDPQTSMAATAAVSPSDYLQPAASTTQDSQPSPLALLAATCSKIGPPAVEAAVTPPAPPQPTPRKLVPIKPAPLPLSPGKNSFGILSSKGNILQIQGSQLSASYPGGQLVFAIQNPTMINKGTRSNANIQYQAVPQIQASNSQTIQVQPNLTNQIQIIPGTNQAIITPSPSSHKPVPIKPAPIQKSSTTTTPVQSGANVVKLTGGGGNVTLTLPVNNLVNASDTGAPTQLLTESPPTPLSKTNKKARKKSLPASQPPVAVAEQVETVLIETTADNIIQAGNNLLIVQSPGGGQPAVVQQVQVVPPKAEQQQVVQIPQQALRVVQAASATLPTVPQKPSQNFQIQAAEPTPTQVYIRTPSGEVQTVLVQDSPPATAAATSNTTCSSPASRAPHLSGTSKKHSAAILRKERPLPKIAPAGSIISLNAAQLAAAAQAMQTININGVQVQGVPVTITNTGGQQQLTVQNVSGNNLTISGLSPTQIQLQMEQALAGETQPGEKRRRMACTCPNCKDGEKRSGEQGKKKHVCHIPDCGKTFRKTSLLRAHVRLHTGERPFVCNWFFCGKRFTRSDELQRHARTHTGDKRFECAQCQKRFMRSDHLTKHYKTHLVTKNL
UniProt P02814: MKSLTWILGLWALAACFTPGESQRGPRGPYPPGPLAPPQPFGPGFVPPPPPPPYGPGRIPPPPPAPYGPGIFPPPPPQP
UniProt Q8WV41: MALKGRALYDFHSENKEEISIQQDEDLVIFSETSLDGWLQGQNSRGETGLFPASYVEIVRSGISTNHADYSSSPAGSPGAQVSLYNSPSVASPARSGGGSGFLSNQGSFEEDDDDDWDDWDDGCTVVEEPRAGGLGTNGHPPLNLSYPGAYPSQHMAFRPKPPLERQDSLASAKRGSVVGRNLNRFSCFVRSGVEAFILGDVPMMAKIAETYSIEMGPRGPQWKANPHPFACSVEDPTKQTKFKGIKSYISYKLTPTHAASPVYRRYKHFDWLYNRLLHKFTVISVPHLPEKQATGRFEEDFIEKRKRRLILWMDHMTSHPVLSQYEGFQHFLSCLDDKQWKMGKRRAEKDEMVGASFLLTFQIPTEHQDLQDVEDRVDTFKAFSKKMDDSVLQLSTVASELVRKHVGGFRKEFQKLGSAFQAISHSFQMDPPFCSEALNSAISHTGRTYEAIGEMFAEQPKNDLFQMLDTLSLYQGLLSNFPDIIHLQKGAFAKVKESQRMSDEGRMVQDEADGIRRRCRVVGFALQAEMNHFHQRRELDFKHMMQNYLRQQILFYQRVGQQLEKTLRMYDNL
UniProt P0DJ93: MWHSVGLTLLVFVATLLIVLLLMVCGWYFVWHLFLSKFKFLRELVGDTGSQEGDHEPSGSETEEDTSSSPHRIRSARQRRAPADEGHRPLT
UniProt Q8TEQ0: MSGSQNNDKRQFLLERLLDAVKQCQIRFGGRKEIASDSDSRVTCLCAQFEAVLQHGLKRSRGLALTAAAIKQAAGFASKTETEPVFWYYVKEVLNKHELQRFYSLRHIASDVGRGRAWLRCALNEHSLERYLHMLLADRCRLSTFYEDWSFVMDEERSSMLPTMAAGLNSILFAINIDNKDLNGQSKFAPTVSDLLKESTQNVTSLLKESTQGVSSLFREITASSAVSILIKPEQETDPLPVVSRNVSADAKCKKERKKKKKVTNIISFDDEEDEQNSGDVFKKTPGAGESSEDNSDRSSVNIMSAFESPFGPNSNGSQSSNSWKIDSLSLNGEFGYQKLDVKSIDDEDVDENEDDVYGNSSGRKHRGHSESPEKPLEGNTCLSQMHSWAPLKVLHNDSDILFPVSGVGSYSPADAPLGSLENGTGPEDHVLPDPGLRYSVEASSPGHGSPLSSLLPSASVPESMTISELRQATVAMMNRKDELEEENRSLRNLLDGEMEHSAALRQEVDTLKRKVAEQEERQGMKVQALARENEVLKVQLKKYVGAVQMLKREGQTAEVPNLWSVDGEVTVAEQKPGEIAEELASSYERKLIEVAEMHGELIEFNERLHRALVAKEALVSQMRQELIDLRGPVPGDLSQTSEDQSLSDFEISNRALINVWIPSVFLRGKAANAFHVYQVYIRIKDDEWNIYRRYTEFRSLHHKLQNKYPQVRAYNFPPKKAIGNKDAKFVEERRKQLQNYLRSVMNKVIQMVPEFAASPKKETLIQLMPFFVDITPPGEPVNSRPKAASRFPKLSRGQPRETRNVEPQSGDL
UniProt Q9BV90: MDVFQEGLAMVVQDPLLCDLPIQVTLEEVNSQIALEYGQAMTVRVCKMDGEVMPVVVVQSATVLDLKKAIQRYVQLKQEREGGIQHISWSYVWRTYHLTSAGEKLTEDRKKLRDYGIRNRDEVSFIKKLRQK
UniProt P0DMW3: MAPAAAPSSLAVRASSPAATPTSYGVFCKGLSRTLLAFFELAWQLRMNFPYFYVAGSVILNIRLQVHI
UniProt Q6STE5, whole entry, looked up: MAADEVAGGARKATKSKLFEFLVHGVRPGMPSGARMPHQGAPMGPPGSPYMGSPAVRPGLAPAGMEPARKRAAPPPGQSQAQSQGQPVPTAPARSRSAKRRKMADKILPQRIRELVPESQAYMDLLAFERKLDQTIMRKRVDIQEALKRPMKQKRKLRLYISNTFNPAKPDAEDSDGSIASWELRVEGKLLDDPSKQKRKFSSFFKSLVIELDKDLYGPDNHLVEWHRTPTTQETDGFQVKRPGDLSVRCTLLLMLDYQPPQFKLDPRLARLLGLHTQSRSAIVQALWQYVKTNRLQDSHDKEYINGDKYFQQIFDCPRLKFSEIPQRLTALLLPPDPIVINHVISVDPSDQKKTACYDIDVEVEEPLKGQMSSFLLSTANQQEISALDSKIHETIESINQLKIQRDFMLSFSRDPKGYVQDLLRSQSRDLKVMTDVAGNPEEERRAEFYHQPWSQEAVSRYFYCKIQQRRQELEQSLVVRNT
UniProt Q5SQN1: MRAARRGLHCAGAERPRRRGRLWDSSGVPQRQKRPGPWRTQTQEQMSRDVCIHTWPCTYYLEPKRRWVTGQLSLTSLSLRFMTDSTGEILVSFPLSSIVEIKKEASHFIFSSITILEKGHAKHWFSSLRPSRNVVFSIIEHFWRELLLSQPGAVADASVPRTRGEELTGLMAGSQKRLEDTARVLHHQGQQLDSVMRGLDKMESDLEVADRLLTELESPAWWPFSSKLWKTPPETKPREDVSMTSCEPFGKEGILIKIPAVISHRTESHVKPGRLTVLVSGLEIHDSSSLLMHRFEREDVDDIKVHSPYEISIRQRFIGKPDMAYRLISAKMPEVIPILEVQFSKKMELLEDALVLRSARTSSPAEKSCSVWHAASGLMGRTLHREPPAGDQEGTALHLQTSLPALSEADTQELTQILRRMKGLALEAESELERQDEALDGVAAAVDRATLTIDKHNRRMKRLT
UniProt O60271: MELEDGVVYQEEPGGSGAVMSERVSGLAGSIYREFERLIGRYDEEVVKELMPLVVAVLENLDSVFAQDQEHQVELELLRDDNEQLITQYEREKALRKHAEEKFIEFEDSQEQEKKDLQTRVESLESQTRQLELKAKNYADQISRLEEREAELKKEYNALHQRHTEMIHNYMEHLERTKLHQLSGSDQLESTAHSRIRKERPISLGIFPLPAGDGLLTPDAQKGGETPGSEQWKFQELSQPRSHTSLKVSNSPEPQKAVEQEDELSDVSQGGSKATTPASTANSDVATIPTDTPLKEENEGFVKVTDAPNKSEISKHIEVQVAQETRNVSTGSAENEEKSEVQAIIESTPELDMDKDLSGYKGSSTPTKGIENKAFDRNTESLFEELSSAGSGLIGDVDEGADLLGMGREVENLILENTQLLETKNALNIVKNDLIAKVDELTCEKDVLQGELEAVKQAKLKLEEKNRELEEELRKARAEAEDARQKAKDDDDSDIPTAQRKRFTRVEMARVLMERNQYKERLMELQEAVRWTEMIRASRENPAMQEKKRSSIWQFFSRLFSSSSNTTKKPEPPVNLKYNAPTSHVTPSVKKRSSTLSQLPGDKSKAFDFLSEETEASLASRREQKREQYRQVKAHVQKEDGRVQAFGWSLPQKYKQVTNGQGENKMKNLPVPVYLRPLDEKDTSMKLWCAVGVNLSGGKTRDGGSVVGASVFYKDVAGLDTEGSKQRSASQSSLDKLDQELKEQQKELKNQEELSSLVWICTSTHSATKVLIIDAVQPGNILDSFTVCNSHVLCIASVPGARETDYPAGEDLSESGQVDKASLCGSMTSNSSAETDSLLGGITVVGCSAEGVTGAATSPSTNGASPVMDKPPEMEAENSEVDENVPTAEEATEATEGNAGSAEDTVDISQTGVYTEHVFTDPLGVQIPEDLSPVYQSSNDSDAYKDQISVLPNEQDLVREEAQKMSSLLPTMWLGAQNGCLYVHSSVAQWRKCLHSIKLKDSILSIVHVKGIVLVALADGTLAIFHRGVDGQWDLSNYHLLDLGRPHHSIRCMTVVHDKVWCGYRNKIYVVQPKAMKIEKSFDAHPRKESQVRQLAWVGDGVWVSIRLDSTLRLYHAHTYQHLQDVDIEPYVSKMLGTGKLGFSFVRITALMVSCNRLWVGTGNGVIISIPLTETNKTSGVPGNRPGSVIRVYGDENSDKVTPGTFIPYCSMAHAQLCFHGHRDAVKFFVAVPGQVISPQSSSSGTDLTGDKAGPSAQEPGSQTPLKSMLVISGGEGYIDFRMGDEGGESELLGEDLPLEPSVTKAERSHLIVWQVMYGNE
UniProt Q16560: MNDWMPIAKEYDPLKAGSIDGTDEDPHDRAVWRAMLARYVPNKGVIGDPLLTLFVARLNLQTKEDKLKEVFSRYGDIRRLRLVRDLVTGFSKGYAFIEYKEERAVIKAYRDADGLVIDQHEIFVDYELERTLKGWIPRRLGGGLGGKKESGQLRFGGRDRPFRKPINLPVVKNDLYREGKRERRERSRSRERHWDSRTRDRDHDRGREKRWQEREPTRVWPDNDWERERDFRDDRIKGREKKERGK
UniProt Q8TAD8: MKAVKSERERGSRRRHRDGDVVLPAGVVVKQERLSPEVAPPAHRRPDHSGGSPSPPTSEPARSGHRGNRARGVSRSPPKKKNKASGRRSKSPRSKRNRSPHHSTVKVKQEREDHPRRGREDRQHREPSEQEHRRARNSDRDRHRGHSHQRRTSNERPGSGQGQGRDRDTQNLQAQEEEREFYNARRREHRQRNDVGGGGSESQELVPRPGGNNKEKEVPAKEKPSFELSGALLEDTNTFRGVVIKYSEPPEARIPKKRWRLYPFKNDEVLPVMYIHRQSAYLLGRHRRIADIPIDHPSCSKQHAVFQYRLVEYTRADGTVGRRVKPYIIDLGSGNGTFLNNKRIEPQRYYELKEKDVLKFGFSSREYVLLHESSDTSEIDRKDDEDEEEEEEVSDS

Columns and labels:
Assay in all cases: log2 fold change, soluble protein after heating vs DMSO (PISA); higher = thermal stabilisation; K562 lysate, 10 uM; active = over 0.2 and 3.5 SD of the protein, either way, in both replicates (recomputed)
[1] = compound: CS(=O)(=O)N1CCN(Cc2cc3nc(-c4cccc5[nH]ncc45)nc(N4CCOCC4)c3s2)CC1 [pictilisib]
How it was run: (§1)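 Thermal stability, expressed as log-two fold change relative to solvent controls, is given from duplicates. Crude K562 extract in PBS pH 7.4 with 1 mM MgCl2, at 1 mg/mL protein, was treated with 10 μM compound for 30 min and heated in aliquots for 3 min across 48°C-58°C. After pooling, adjustment to 0.5% NP-40 at 4°C and centrifugation at 21,000xg for 90 min, supernatant protein was measured by TMTpro 16plex LC-MS/MS with channel sums equalised.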

[2] = compound: C[C@@H](Oc1cc(-c2cnn(C3CCNCC3)c2)cnc1N)c1c(Cl)ccc(F)c1Cl [crizotinib]
How it was run: as §1

[3] = compound: C[C@H](Nc1ncnc2nc[nH]c12)c1cc2cccc(Cl)c2c(=O)n1-c1ccccc1 [duvelisib]
How it was run: as §1

[4] = compound: Cc1ccc(-n2nc(C(C)(C)C)cc2NC(=O)Nc2ccc(OCCN3CCOCC3)c3ccccc23)cc1 [doramapimod]
How it was run: as §1

[5] = compound: Cc1ccc(NC(=O)c2ccc(CN3CC[C@H](N(C)C)C3)c(C(F)(F)F)c2)cc1Nc1nccc(-c2cncnc2)n1 [bafetinib]
How it was run: as §1

[6] = compound: Cc1cn(-c2cc(NC(=O)c3ccc(C)c(Nc4nccc(-c5cccnc5)n4)c3)cc(C(F)(F)F)c2)cn1 [nilotinib]
How it was run: as §1

[7] = compound: Cc1nc(Nc2n[nH]c3c2CN(C(=O)N[C@H](CN(C)C)c2ccccc2)C3(C)C)c2sccc2n1
How it was run: as §1

[8] = compound: Cc1nc(Nc2ncc(C(=O)Nc3c(C)cccc3Cl)s2)cc(N2CCN(CCO)CC2)n1 [dasatinib]
How it was run: as §1

[9] = compound: Cc1ncc(-c2ccnc(Nc3ccc(S(C)(=O)=O)cc3)n2)n1C(C)C
How it was run: as §1

[10] = compound: Cn1cc(-c2ccc3c(c2)CCN3C(=O)Cc2cccc(C(F)(F)F)c2)c2c(N)ncnc21
How it was run: as §1

[11] = compound: Cn1cc(CNCC2CCN(c3ncc(C(=O)NO)cn3)CC2)c2ccccc21 [quisinostat]
How it was run: as §1

[12] = compound: Cn1cncc1[C@@](N)(c1ccc(Cl)cc1)c1ccc2c(c1)c(-c1cccc(Cl)c1)cc(=O)n2C [tipifarnib]
How it was run: as §1

[13] = compound: NC(=O)Nc1cc(-c2cccc(F)c2)sc1C(=O)N[C@H]1CCCNC1
How it was run: as §1

[14] = compound: NC1(c2ccc(-c3nc4ccn5c(=O)[nH]nc5c4cc3-c3ccccc3)cc2)CCC1
How it was run: as §1

[15] = compound: C[C@H](C1=CC=C(C=C1)C(=O)NC2=C3C=CNC3=NC=C2)N
How it was run: as §1

[16] = compound: Cc1cc(Nc2cc(CN3CCOCC3)c3nc(C)c(Cc4ccc(Cl)cc4F)n3n2)n[nH]1 [gandotinib]
How it was run: as §1

[17] = compound: Cc1cc(Nc2cc(N3CCN(C)CC3)nc(Sc3ccc(NC(=O)C4CC4)cc3)n2)n[nH]1 [tozasertib]
How it was run: as §1

[18] = compound: Cc1cccc(CC(=O)N2CCc3c2ccc(-c2cn(C)c4ncnc(N)c24)c3F)n1
How it was run: as §1

Measured: log2 fold change

SMPD1 (UniProt P17405)
inactive: [1] -0.13 | [2] 0.109 | [3] 0.111 | [4] -0.024 | [5] 0 | [6] 0.063 | [7] -0.209 | [8] -0.04 | [9] -0.1 | [10] 0.068 | [11] 0.127 | [12] 0.047 | [13] -0.048 | [14] -0.013

SOSTDC1 isoform 2 (UniProt Q6X4U4)
inactive: [3] -0.086 | [8] 0.172 | [10] -0.129

SNAPC1 (UniProt Q16533)
inactive: [2] 0.077 | [4] -0.066 | [6] -0.099 | [7] 0.133 | [9] -0.206 | [11] -0.1 | [12] -0.011 | [13] 0.07

SPARC (UniProt P09486)
inactive: [1] 0.025 | [2] 0.054 | [15] 0.057 | [3] 0.024 | [16] -0.045 | [17] 0.062 | [4] -0.062 | [5] -0.075 | [18] 0.049 | [8] 0.003 | [10] 0.021 | [11] 0.094 | [13] 0.059 | [14] -0.071

SP2 (UniProt Q02086)
inactive: [1] -0.182 | [2] -0.192 | [3] 0.032 | [17] -0.04 | [4] -0.046 | [5] 0.016 | [6] 0.15 | [7] -0.053 | [8] -0.183 | [9] 0.04 | [10] 0.149 | [11] 0.067 | [12] 0.029 | [13] 0.089

SMR3B (UniProt P02814)
inactive: [2] 0.17 | [15] -0.015 | [16] -0.321 | [17] -0.015 | [4] -0.016 | [18] 0.01 | [11] -0.277 | [13] 0.066

SNX33 (UniProt Q8WV41)
inactive: [1] 0.033 | [2] -0.058 | [3] 0.085 | [4] -0.035 | [5] -0.001 | [6] 0.021 | [7] -0.066 | [8] 0.041 | [9] -0.015 | [10] -0.047 | [11] -0.151 | [12] 0.067 | [13] 0.139

SNX10 (UniProt Q9Y5X0)
inactive: [2] -0.064 | [3] -0.04 | [4] 0.002 | [8] -0.156 | [10] 0.144 | [11] -0.238 | [13] 0.084 | [14] 0.018

SMIM13 (UniProt P0DJ93)
inactive: [2] 0.029 | [4] -0.035 | [11] 0.106 | [13] -0.002 | [14] 0.113

SNX29 (UniProt Q8TEQ0)
inactive: [2] -0.205 | [15] 0.206 | [16] -0.055 | [17] 0.088 | [4] 0.012 | [18] 0.131 | [6] -0.041 | [7] 0.056 | [9] 0.093 | [11] -0.142 | [12] -0.11 | [13] 0.129 | [14] 0.042

SMIM26, A0A096LP01
inactive: [15] -0.047 | [16] -0.064 | [18] -0.012 | [6] 0.158 | [7] 0.073 | [9] -0.092 | [12] -0.059

SOX7 isoform 2 (UniProt Q9BT81)
inactive: [1] -0.016 | [15] 0.209 | [16] -0.147 | [5] -0.052 | [18] -0.165 | [6] 0.071 | [7] 0.076 | [9] 0.148 | [12] 0.055 | [14] -0.147

SOGA1 isoform 2 (UniProt O94964)
inactive: [1] -0.051 | [2] -0.015 | [15] 0.038 | [3] -0.015 | [16] -0.209 | [17] 0.038 | [4] 0.027 | [5] -0.044 | [18] -0.054 | [6] -0.009 | [7] -0.001 | [8] -0.077 | [9] 0 | [10] 0.043 | [11] -0.091 | [12] -0.056 | [13] -0.016 | [14] 0.042

SNX19 (UniProt Q92543)
inactive: [2] 0.021 | [15] -0.165 | [3] -0.027 | [16] 0.032 | [17] -0.067 | [4] -0.042 | [18] 0.047 | [6] -0.045 | [7] -0.08 | [8] 0.018 | [9] 0.084 | [10] 0.11 | [11] -0.008 | [12] 0.013 | [13] 0.071 | [14] 0.089

SNRNP25 (UniProt Q9BV90)
inactive: [1] 0.037 | [5] -0.095 | [6] 0.02 | [7] 0.078 | [9] 0.061 | [12] 0.094

SNX25 (UniProt Q9H3E2)
inactive: [2] 0.061 | [3] -0.037 | [17] 0.01 | [4] -0.058 | [8] -0.036 | [10] 0.046 | [11] 0.097 | [13] 0.025 | [14] 0.072

SMIM10L1 (UniProt P0DMW3)
inactive: [15] 0.143 | [16] -0.108 | [18] 0.106

SMC4 (UniProt C9JJ64)
inactive: [1] 0.006 | [5] -0.251

SMARCD3 (UniProt Q6STE5)
inactive: [3] -0.014 | [8] 0.017 | [10] 0.018 | [14] -0.048

SNAP47 (UniProt Q5SQN1)
inactive: [1] -0.061 | [2] -0.035 | [15] -0.243 | [3] -0.028 | [16] 0.165 | [17] -0.17 | [4] 0.046 | [5] 0.017 | [18] 0.051 | [6] -0.009 | [7] -0.022 | [8] -0.036 | [9] 0 | [10] 0.053 | [11] -0.041 | [12] -0.004 | [13] 0.027 | [14] 0.037

2 successive records out of the list so far:
SMR3B (UniProt P02814)
inactive: [2] 0.17 | [15] -0.015 | [16] -0.321 | [17] -0.015 | [4] -0.016 | [18] 0.01 | [11] -0.277 | [13] 0.066

SNX33 (UniProt Q8WV41)
inactive: [1] 0.033 | [2] -0.058 | [3] 0.085 | [4] -0.035 | [5] -0.001 | [6] 0.021 | [7] -0.066 | [8] 0.041 | [9] -0.015 | [10] -0.047 | [11] -0.151 | [12] 0.067 | [13] 0.139

Later entries.

SPAG9 isoform 4 (UniProt O60271)
inactive: [1] 0.046 | [2] 0.109 | [15] -0.067 | [16] -0.008 | [17] -0.013 | [4] 0.011 | [5] 0.031 | [18] 0.033 | [11] 0.023 | [13] 0.054

SNRNP35 isoform 2 (UniProt Q16560)
inactive: [15] -0.068 | [3] 0.054 | [16] 0.065 | [18] 0.105 | [6] 0.147 | [7] -0.065 | [8] 0.057 | [9] 0.159 | [10] 0.161 | [12] -0.064

SNIP1 (UniProt Q8TAD8)
inactive: [6] -0.1 | [7] 0.037 | [9] -0.078 | [12] -0.149
